Data as given in PubChem BioAssay AID1159584 (Peter MacCallum Cancer Centre, 2016).
This is one part, drawn at random, of about 18,000 deposited reagents. Not all columns of the deposit are shown. The record does not give: the amount of reagent, the time to read-out.

Test: 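Knock-downs that harm CDH1-null cells more than parental MCF10A cells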 (primary screen)
Cell system: human MCF10A breast epithelial cells, parental and CDH1-null
Reagents: siRNA against human genes
Measurement: 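ATP luminescence (CellTiter-Glo) viability per line relative to mean mock wells over all plates, and the ratio of CDH1-null to parental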
Direction: CDH1-null / parental viability ratio: higher = CDH1-null cells survive relatively better than parental; CDH1-null viability vs mock: higher = more viable CDH1-null cells
Units: CDH1-null viability vs mock in fraction of mock

ATXN1 showed CDH1-null / parental viability ratio 0.89; CDH1-null viability vs mock 0.62.
Knock-down of ABO gave: CDH1-null / parental viability ratio 0.79; CDH1-null viability vs mock 0.74.
With knock-down of CMTM7, the screen gave CDH1-null / parental viability ratio 0.97; CDH1-null viability vs mock 0.72.
GPX3 gave CDH1-null / parental viability ratio 0.86; CDH1-null viability vs mock 0.38.
Depletion of IFI27L2 came out at: CDH1-null / parental viability ratio 1.33; CDH1-null viability vs mock 0.72.
Depletion of DNAJC4 resulted in: CDH1-null / parental viability ratio 1.11; CDH1-null viability vs mock 0.62.
CCDC112 showed CDH1-null / parental viability ratio 0.77; CDH1-null viability vs mock 0.63.
After knock-down of NDUFA5, the record shows CDH1-null / parental viability ratio 1.2; CDH1-null viability vs mock 0.6.
For DEFA4, the entry reads CDH1-null / parental viability ratio 1.03; CDH1-null viability vs mock 0.64.
Against KRT75, the entry reads CDH1-null / parental viability ratio 1.15; CDH1-null viability vs mock 0.97.
Against POLR1A the deposit lists CDH1-null / parental viability ratio 1.14; CDH1-null viability vs mock 0.73.
With knock-down of TDRD10, the screen gave CDH1-null / parental viability ratio 0.91; CDH1-null viability vs mock 1.03.
Silencing of TMEM268 resulted in: CDH1-null / parental viability ratio 1.2; CDH1-null viability vs mock 0.6.
Knock-down of DNAJB12 gave: CDH1-null / parental viability ratio 1.21; CDH1-null viability vs mock 0.98.
Knock-down of RBMXL2 gave: CDH1-null / parental viability ratio 1.11; CDH1-null viability vs mock 0.82.
Against OR5V1, the entry reads CDH1-null / parental viability ratio 1.41; CDH1-null viability vs mock 0.62.
For SCN4B the deposit lists CDH1-null / parental viability ratio 1.11; CDH1-null viability vs mock 0.99.
RPS28 gave CDH1-null / parental viability ratio 1.85; CDH1-null viability vs mock 0.48.
For ZNF684 the deposit lists CDH1-null / parental viability ratio 0.95; CDH1-null viability vs mock 0.21.
NKX3-2 scored CDH1-null / parental viability ratio 1.13; CDH1-null viability vs mock 0.86.
With knock-down of CREB3L3, the record shows CDH1-null / parental viability ratio 0.89; CDH1-null viability vs mock 0.78.
Knock-down of MGST3 came out at: CDH1-null / parental viability ratio 1.11; CDH1-null viability vs mock 1.09.
Silencing of GPX8 resulted in: CDH1-null / parental viability ratio 1.07; CDH1-null viability vs mock 0.94.
COG7 gave CDH1-null / parental viability ratio 1.35; CDH1-null viability vs mock 0.84.

Targets listed so far whose gene name starts with N or n (2):
NDUFA5 | CDH1-null / parental viability ratio = 1.2; CDH1-null viability vs mock = 0.6
NKX3-2 | CDH1-null / parental viability ratio = 1.13; CDH1-null viability vs mock = 0.86
